Measured values published in doi:10.1101/2022.04.14.488335.
Results are given in words; binding and its absence hold for the method and conditions named. Some results given as binding are weak or reduced against the parent protein; the word gives no strength. Sequences can lack the tags named with a protein.

Tests used:
[1] = target: T1, MBP-SYCP1N (amino-acids 1-362) (UniProt Q15431); test: pull-down
T1 sequence: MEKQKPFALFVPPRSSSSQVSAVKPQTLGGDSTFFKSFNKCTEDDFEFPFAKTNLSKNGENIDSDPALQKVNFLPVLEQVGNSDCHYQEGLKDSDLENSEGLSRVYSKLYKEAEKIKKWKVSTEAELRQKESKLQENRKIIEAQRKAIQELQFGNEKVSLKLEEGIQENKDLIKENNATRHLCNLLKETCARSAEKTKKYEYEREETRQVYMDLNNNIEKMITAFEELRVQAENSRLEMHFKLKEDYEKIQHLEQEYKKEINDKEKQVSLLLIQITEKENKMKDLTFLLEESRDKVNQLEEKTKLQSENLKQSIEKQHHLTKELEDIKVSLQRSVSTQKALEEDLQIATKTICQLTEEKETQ

[2] = target: T1, MBP-SYCP1N (amino-acids 1-362); test: SEC
[3] = target: T2, MBP-SYCP1 amino-acids 1-100 (UniProt Q15431); test: SEC
T2 sequence: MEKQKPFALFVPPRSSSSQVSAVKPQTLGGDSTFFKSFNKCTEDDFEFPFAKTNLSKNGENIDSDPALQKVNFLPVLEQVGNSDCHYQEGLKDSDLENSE

Measured: binding

B1: SYCE2-TEX12 complex (complex, UniProt Q6PIF2 1-218; Q9BXU0 1-123)
chain 1: MERQGVDVPHVKCKDQEPQPLGESKEHPRWEENCEEEAGGGPASASCQLTVLEGKSGLYFSSLDSSIDILQKRAQELIENINKSRQKDHALMTNFRNSLKTKVSDLTEKLEERIYQIYNDHNKIIQEKLQEFTQKMAKISHLETELKQVCHSVETVYKDLCLQPEQSLRLRWGPDHSRGKSPPRPGNSQPPDVFVSSVAETTSQATASEVQTNRDGEC
chain 2: MMANHLVKPDNRNCKRPRELESPVPDSPQLSSLGKSDSSFSEISGLFYKDEALEKDLNDVSKEINLMLSTYAKLLSERAAVDASYIDEIDELFKEANAIENFLIQKREFLRQRFTVIANTLHR
binds weakly: all assays above
